Our source for the binding values is publication doi:10.1101/2021.04.08.439049.

Sequences of proteins named here, by UniProt entry; tags and fusion partners are left off. A change or cut given only in a name is not applied to a line headed by its entry.
UniProt P49841, whole entry: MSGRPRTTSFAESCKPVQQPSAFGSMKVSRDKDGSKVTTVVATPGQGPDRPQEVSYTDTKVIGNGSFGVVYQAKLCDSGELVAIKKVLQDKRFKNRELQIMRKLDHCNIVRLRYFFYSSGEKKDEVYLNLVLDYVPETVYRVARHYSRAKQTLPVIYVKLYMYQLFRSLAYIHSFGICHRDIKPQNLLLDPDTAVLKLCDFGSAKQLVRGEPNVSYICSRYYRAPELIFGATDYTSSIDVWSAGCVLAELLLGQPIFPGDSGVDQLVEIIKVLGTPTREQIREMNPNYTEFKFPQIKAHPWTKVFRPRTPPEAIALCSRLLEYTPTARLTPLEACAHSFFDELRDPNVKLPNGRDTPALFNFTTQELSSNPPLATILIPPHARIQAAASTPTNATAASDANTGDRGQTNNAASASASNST
UniProt P10644, whole entry: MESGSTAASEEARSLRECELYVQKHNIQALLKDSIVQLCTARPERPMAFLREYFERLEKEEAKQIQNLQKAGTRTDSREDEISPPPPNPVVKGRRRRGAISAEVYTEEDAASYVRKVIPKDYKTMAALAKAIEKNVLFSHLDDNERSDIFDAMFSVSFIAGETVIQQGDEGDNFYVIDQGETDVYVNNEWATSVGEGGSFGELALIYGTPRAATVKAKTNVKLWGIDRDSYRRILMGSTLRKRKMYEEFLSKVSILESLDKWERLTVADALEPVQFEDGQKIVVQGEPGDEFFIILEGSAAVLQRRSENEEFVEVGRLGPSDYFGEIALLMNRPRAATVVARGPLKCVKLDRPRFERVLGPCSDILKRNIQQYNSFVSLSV

Read-outs that look alike come from different tables or passages of the source. These are yes or no findings as the source states them, for the method shown. For some of these results: In cells and extracts the contact can be indirect. Some binding calls cover weakened binding; strength is not graded here. For some of these results: Tags and fused reporters may be left off the sequences shown.

The target in assay [1] is T1, His-HK2 (Creative Biomart) (UniProt P52789).
T1 sequence: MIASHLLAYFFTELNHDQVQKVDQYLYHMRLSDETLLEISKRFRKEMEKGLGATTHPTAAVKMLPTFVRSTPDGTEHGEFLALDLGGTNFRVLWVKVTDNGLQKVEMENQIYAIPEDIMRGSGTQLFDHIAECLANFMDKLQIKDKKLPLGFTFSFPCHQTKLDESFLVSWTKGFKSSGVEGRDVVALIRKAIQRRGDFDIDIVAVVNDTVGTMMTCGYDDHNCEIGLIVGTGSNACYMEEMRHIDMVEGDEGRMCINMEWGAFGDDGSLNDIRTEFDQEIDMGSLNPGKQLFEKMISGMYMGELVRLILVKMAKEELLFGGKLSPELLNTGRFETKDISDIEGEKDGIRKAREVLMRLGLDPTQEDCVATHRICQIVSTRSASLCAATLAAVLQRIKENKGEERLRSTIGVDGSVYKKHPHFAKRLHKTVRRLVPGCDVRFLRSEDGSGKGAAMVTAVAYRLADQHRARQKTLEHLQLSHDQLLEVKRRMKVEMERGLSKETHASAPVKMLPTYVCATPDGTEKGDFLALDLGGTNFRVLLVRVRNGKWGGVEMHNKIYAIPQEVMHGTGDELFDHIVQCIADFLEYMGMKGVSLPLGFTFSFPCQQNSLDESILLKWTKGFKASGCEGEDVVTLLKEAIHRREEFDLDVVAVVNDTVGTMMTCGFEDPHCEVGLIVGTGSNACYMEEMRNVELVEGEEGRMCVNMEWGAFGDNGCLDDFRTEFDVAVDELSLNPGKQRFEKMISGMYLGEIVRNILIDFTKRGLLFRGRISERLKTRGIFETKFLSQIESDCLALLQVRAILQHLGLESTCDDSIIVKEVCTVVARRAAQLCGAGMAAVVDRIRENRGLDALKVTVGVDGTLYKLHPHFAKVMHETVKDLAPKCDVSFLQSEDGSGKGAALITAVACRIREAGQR
In words: ELISA. For orientation: ELISA stands for enzyme-linked immunosorbent assay.

The target in assay [2] is T2, Myc-HK2 protein (OriGene) (UniProt P52789).
T2 sequence: T1 sequence
The assay is described as follows: ELISA.

In assay [3] the target is T3, HA-tagged HK2, wild type (catalytically active), in M15-4 CHO cells (rat) (UniProt P27881).
T3 sequence: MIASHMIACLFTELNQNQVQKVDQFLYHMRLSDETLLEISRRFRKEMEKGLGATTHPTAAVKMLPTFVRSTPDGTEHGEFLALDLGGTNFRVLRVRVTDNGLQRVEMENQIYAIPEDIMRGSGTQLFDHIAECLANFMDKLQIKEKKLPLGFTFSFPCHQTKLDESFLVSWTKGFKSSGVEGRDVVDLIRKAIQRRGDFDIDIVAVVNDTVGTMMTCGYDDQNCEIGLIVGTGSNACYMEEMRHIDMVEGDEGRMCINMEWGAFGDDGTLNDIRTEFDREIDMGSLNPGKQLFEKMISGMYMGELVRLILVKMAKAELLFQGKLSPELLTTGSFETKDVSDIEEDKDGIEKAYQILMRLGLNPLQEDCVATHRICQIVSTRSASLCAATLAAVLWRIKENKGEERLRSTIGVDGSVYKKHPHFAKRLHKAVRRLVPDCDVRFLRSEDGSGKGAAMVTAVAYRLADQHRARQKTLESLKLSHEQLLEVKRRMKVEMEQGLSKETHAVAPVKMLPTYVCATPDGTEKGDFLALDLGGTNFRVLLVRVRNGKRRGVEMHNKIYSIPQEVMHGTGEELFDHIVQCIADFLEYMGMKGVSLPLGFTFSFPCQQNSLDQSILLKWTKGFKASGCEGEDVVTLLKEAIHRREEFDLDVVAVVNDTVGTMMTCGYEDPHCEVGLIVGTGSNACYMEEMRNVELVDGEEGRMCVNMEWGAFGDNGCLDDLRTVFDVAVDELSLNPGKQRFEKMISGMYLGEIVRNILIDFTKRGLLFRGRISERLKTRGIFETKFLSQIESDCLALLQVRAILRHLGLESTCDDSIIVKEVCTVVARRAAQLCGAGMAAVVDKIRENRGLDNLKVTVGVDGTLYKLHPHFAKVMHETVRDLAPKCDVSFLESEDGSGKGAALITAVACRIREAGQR
In words: co-IP.

For assay [4], the target named is T4, HA-tagged HK2 (HK2-HA), wild type, in HEK293 cells (rat) (UniProt P27881).
T4 sequence: T3 sequence
The assay is described as follows: co-IP.

The target in assay [5] is T4, HA-tagged HK2 (HK2-HA), wild type, in HEK293 cells (rat). The assay is described as follows: co-IP. The source holds these as a separate data set.
Assay [6] addresses T5, endogenous HK2 of HEK293 cells (human (endogenous in HEK293)) (UniProt P52789).
T5 sequence: T1 sequence
In words: co-IP.

Regarding “GST-GSK3b (Abcam) (from UniProt P49841 1-420) (enzyme)”, the binding result in assay [1] and in assay [2] was “binds” throughout.
On to “Myc-GSK3β in M15-4 CHO cells (from UniProt P49841 1-420) (enzyme)”, for which the binding result in assay [3] was “binds”.
Regarding “Myc-GSK3β nonphosphorylatable mutant (S9A) in HEK293 cells (from UniProt P49841 1-420) (enzyme)”, the binding result in assay [4] is “binds weakly”; in assay [5], “binds”.
Regarding “Myc-PRKAR1α (Creative Biomart) (from UniProt P10644 1-381)”, in assay [1], the binding entry was “binds”.
“endogenous GSK3β of HEK293 cells (from UniProt P49841 1-420) (enzyme)”: the binding entry in assay [6] is “binds”.
For the substance “endogenous PRKAR1a of HEK293 cells (from UniProt P10644 1-381)”, the binding entry in assay [5] is “binds”.
For the substance “myc-GSK3β wild type in HEK293 cells (from UniProt P49841 1-420) (enzyme)”, the binding entry in assay [4] is “binds weakly”; in assay [5], “binds”.
